# Reference: paper PMC7819943, “Rice protein-binding microarrays: a tool to detect cis-acting elements near promoter regions in rice”
# Protein sequences, listed by entry. Tags and fused reporters are not part of them.
# UniProt Q0JBA9, entry or part of it: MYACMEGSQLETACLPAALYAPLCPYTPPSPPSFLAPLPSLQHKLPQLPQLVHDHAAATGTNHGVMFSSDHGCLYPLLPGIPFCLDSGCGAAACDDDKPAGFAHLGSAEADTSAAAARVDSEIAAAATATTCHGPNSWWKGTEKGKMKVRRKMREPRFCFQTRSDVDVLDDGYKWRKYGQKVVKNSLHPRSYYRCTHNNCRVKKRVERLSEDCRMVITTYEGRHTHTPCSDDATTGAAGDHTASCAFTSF
# Some of the results follow.
# Target: OsWRKY34 (Oryza sativa, UniProt Q0JBA9 1-250)
# Experiment: protein-binding microarray (RPBM); PBS, 2% BSA, 51.3 ng/ul salmon testes DNA, 50 uM zinc acetate, 200 nM TF, 25 C, 1 h; high values mean tight binding
# Conditions: protein: recombinant; tags: N-terminal polyhistidine and DsRed monomer fusion (pET32a); label: CyDye5-dUTP incorporated in the synthesized complementary strand; 3' TTTTT single-stranded linker to array surface; dsDNA, one strand shown
# Outline: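 Polyhistidine-tagged DsRed fusions of transcription factors, joined at the N-terminus, were expressed in E. coli BL21-CodonPlus and isolated on Ni–NTA. They were incubated at 200 nM for 1 h at 25 °C on a custom Agilent array, double-stranded and BSA-blocked, in PBS with 2% BSA, salmon testes DNA and 50 µM zinc acetate. The binding signal is per-feature fluorescence intensity (arbitrary units) read on an Axon 4000B scanner after washing.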
row,Sequence,binding signal
1,ACCACCTTGCGGCATCTCTCTGGGGAACCTCCTCAAATTGCGGAGTCACCTAGTGCAG,8200 fluorescence intensity (a.u.)
2,ACTTATTACTATGCCTGATGCTTGGTCTCTACAAACTATTCGGAGTCACCTAGTGCAG,13100 fluorescence intensity (a.u.)
3,AAAGAGAGCGCACACGCGGTTGATTTGTTTGACCGACGCGCGGAGTCACCTAGTGCAG,8360 fluorescence intensity (a.u.)
4,TGTCTGGTGTTTGTATGGTCATGGCGGGTTGCAGCAGCTCCGGAGTCACCTAGTGCAG,8940 fluorescence intensity (a.u.)
5,TTTCTCATATGTTTGACCATTCGTCTTATTAAAAAAATTTCGGAGTCACCTAGTGCAG,8930 fluorescence intensity (a.u.)
6,TGTTCTCCGTGTTGCTTATTTATGTTAGTCAATTACTCTTCGGAGTCACCTAGTGCAG,10200 fluorescence intensity (a.u.)
7,TCACACCAAGGAAACCATCTCCACTGGCGACTCCATCGAGCGGAGTCACCTAGTGCAG,8220 fluorescence intensity (a.u.)
8,ACCACGGCAATTTTTTCTCTCCCACGGCCGCCACGCCACTCGGAGTCACCTAGTGCAG,10600 fluorescence intensity (a.u.)
9,AAAATTTTTCAGAGTCTGGGTCAAACTTGTTATTCAGTTACGGAGTCACCTAGTGCAG,8600 fluorescence intensity (a.u.)
10,TTGATTTGGATGGTGGTGGTTGGATTCAAATGGGCTGATACGGAGTCACCTAGTGCAG,8690 fluorescence intensity (a.u.)
11,AAGTGTGTTGGTTGGTGGCATTGTGCTGCGCATGGAGGTTCGGAGTCACCTAGTGCAG,9580 fluorescence intensity (a.u.)
12,TTTCTATGGAAGTTTAACTTTGTGCTTAGGTCAGCTTTGTCGGAGTCACCTAGTGCAG,8480 fluorescence intensity (a.u.)
13,GTAGTGACTGCTAGGTATTTTCGGATTACAGATCCTTCCACGGAGTCACCTAGTGCAG,8290 fluorescence intensity (a.u.)
14,CATTGTGCGCTCTGGAGAGGCTCCAAACCACCATTGTTCGCGGAGTCACCTAGTGCAG,8090 fluorescence intensity (a.u.)
15,AGTTCCGCATCTAATTCCTAGCTCATTGTGTTGTTCTTATCGGAGTCACCTAGTGCAG,8240 fluorescence intensity (a.u.)
16,TCAATTGTTTGTGCAGTTTGTTTGTTTTTATTTATTTATTCGGAGTCACCTAGTGCAG,9540 fluorescence intensity (a.u.)
17,ATTTGTCAGACTTTTCCTACACATCCTACTCATGACACACCGGAGTCACCTAGTGCAG,9020 fluorescence intensity (a.u.)
18,CTAGGCTGATACACTCATACACACGAGTCCCAGACTGTCACGGAGTCACCTAGTGCAG,9320 fluorescence intensity (a.u.)
19,TGGAGCATCAGTCATCTTGTTCCTCCACTCCAGTCCATTCCGGAGTCACCTAGTGCAG,8090 fluorescence intensity (a.u.)
20,CTAATCCTCCTGCTCCATCTCGATCCACATAACGATCCACCGGAGTCACCTAGTGCAG,8470 fluorescence intensity (a.u.)
21,AAACGGAGGTAGTATAAGAGATTTTGACTTTTTCTTGTACCGGAGTCACCTAGTGCAG,9110 fluorescence intensity (a.u.)

# Fetched one by one from above:
row,Sequence,binding signal
14,CATTGTGCGCTCTGGAGAGGCTCCAAACCACCATTGTTCGCGGAGTCACCTAGTGCAG,8090 fluorescence intensity (a.u.)
1,ACCACCTTGCGGCATCTCTCTGGGGAACCTCCTCAAATTGCGGAGTCACCTAGTGCAG,8200 fluorescence intensity (a.u.)

# Going on with the list.

row,Sequence,binding signal
1,GGTAGTACTGAAACTTAATTATGGGGTTTTGGATATATGACGGAGTCACCTAGTGCAG,10500 fluorescence intensity (a.u.)
2,TTGTGTTTTTTTTTCTATCTTACTAACCTTCGGATATATACGGAGTCACCTAGTGCAG,8340 fluorescence intensity (a.u.)
3,AGCTCACTCTAAACCATGTTCGTACCACTACACTTTGTACCGGAGTCACCTAGTGCAG,9170 fluorescence intensity (a.u.)
4,CTGCACTTTTTGTCTATTTTACTTATGACTACAATATTCCCGGAGTCACCTAGTGCAG,9080 fluorescence intensity (a.u.)
5,TGTAGACTTCTATTTTTTGTTCATTTGATGGATGATTGCACGGAGTCACCTAGTGCAG,8170 fluorescence intensity (a.u.)
6,CGCTCATGGCTAGTTCTCTTCTGTTGTGCAGTCATCCTTCCGGAGTCACCTAGTGCAG,8620 fluorescence intensity (a.u.)
7,TTCCTTGTCCGTAGTGTTCTTCCCGAAGTTCTTGATTGATCGGAGTCACCTAGTGCAG,8400 fluorescence intensity (a.u.)
8,ACCCCTACAAGTTTAAGAACCGCCCGTACACTTTACTTAACGGAGTCACCTAGTGCAG,9730 fluorescence intensity (a.u.)
9,GATTATTTGCTTTACGGTTTTTTAAAAAAATTTCTTCATACGGAGTCACCTAGTGCAG,9590 fluorescence intensity (a.u.)
10,CTTTCCTTGCGCTGTTCTTCGCTTCATCCATCCATCAGCTCGGAGTCACCTAGTGCAG,10800 fluorescence intensity (a.u.)
11,AGTTCTCTTTGTAGGGAGAATACAGTGGTACATGTTTGACCGGAGTCACCTAGTGCAG,8170 fluorescence intensity (a.u.)
12,GTAATCTAAGCTAGCCAGGTCGTCATCTTCTTCCTTCAGCCGGAGTCACCTAGTGCAG,9250 fluorescence intensity (a.u.)
13,ACTACCAAGTTTGACCCTGCTACTTTGTAACCGGCGAACACGGAGTCACCTAGTGCAG,8820 fluorescence intensity (a.u.)
14,GCTACAATTGTCCCACTCCTCGGAACATTGGCGGTAGGGGCGGAGTCACCTAGTGCAG,8700 fluorescence intensity (a.u.)
15,AACCCATTTGCACACAACCCAAATTTCAAACTAAAACTTCCGGAGTCACCTAGTGCAG,8370 fluorescence intensity (a.u.)
16,TAGCTATATATGCTCCTTTTCTAGCTGAAAATTGGTGGGGCGGAGTCACCTAGTGCAG,9610 fluorescence intensity (a.u.)
17,AAGAGGAGAATTTGTGGGTCTTTTGGATGGTTTTGTGAACCGGAGTCACCTAGTGCAG,8200 fluorescence intensity (a.u.)
18,GGACTAATGATGTTTCTTCTGGTGCTAATACCAATCCATCCGGAGTCACCTAGTGCAG,10800 fluorescence intensity (a.u.)
19,GCTTTTTTCTTTTTTGGTTTCATCTCTCTCCATAGACCATCGGAGTCACCTAGTGCAG,11800 fluorescence intensity (a.u.)
20,ATAATTCTCCTTGTTTAAGTCCATACAATGTTTCTACGACCGGAGTCACCTAGTGCAG,9490 fluorescence intensity (a.u.)
21,CCTGTAATACTTTTGTTAATTCGATCCTACTACATCTTTACGGAGTCACCTAGTGCAG,10400 fluorescence intensity (a.u.)
